According to patent US12617870B2, “Methods of reversing ticagrelor activity” (SFJ Pharmaceuticals X, LTD., priority 2018, dated 2026):
For at least one compound, name, drawing or mass did not settle the structure.

Tested on: PB2452 binding to biotinylated ticagrelor
Test: Selectivity: competition binding with PB2452 to biotinylated ticagrelor
Set-up: species or system human
Procedure: The chemical starting point for the development of ticagrelor was adenosine triphosphate (ATP), and ticagrelor retains an adenosine-like core. To confirm the specificity of PB2452 for ticagrelor and ticagrelor active metabolite (TAM), its binding to ATP, ADP, and adenosine was evaluated. […] The selectivity of PB2452 was determined by competition binding with PB2452 to biotinylated ticagrelor.

| SMILES | inhibition of PB2452 binding to biotinylated ticagrelor |
| --- | --- |
| COc1ccnc(C[S+]([O-])c2nc3ccc(OC(F)F)cc3[nH]2)c1OC (centres unmarked) [pantoprazole] | No inhibition |
| CCC(C)(C)C(=O)O[C@H]1C[C@@H](C)C=C2C=C[C@H](C)[C@H](CC[C@@H]3C[C@@H](O)CC(=O)O3)[C@H]21 [simvastatin] | No inhibition |
